Assay results published in US8435548B2 (Bio-FD&C Co., Ltd, priority 2009, dated 2013).

Test: general procedure: Fmoc solid-phase peptide synthesis; HOBt/DCC
Conditions: whole synthesis

“Galloyl-Decapeptide(Tyrosyl-Glycyl-Glycyl-Phenylalanyl-Leucyl-Arginyl-Lysyl-Tyrosyl-Prolyl-Lysine) (SEQ ID No: 5) (YGGFLRKYPK)” showed an isolated yield of 59%.
With “Digalloyl-Tetrapeptide(Lysyl-Tyrosyl-Histidyl-Tyrosine) (KYHY)” the isolated yield was 71%.
